Results are given in words; binding and its absence hold for the method and conditions named. Binding calls can cover weak binding; strength is not graded here.
Biological target: LOV domain of White Collar 1 (WC-1) bound to the Gal4 DNA binding domain (Neurospora crassa) (UniProt Q01371)
Assay: two-hybrid; FUN-LOV switch in S. cerevisiae; destabilized firefly luciferase reporter under P_(GAL1) or P_(5XGAL1); luminescence of living cells normalised by OD600; constant white light (100 µmol m^-2 s^-1) or constant blue light (20 µmol m^-2 s^-1), 30°C; fold induction against the average background in constant darkness

Chains of the proteins cited; added tags and fusions are not shown. Lines headed by an entry give the natural chain unless they say otherwise; changes in a name come on top. A line that says so, or that is headed by a name, gives the form on record, which may keep a tag or linker.
UniProt Q01371: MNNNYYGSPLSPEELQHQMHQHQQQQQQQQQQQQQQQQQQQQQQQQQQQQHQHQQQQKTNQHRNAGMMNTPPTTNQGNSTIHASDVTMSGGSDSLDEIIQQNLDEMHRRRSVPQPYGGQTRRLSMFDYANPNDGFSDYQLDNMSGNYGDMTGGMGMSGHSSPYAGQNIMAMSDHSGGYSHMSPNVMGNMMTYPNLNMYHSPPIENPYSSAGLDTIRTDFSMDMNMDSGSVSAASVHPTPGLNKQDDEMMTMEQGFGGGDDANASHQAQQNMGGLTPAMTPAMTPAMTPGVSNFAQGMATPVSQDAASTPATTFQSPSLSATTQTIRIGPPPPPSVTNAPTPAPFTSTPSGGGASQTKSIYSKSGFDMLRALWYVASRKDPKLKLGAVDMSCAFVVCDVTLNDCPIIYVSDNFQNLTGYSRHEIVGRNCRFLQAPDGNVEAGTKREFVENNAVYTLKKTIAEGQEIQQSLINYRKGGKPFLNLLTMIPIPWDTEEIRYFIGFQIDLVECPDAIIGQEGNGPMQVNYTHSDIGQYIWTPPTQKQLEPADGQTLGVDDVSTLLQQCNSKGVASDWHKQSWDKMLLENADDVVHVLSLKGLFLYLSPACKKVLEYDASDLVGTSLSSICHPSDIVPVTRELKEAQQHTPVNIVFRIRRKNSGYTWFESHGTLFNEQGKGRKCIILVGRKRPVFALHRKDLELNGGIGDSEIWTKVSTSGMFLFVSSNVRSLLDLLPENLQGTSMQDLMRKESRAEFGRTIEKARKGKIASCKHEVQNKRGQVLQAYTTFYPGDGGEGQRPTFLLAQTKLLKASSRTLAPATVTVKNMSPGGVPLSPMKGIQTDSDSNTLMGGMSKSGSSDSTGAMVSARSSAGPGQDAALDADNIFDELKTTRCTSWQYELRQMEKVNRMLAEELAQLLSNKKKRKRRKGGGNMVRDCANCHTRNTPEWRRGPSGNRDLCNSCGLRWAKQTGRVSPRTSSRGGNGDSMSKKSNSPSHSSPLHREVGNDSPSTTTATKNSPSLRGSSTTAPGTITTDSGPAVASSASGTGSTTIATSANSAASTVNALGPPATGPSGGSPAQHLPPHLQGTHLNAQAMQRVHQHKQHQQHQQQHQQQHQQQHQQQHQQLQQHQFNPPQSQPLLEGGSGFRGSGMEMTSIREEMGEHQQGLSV
full-length VIVID (VVD) tethered to the Gal4 transactivation domain (Q9C3Y6, form named): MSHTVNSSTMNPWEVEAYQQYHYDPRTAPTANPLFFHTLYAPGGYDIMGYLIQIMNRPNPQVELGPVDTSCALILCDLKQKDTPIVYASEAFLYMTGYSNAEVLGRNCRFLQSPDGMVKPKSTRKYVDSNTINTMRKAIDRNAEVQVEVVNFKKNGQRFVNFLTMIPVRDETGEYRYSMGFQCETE

full-length VIVID (VVD) tethered to the Gal4 transactivation domain (from UniProt Q9C3Y6 1-186)
binding: binds
